# In article PMC2700282:
# Sequences of proteins named here, by UniProt entry; tags and fusion partners are left off.
# UniProt Q6KC79: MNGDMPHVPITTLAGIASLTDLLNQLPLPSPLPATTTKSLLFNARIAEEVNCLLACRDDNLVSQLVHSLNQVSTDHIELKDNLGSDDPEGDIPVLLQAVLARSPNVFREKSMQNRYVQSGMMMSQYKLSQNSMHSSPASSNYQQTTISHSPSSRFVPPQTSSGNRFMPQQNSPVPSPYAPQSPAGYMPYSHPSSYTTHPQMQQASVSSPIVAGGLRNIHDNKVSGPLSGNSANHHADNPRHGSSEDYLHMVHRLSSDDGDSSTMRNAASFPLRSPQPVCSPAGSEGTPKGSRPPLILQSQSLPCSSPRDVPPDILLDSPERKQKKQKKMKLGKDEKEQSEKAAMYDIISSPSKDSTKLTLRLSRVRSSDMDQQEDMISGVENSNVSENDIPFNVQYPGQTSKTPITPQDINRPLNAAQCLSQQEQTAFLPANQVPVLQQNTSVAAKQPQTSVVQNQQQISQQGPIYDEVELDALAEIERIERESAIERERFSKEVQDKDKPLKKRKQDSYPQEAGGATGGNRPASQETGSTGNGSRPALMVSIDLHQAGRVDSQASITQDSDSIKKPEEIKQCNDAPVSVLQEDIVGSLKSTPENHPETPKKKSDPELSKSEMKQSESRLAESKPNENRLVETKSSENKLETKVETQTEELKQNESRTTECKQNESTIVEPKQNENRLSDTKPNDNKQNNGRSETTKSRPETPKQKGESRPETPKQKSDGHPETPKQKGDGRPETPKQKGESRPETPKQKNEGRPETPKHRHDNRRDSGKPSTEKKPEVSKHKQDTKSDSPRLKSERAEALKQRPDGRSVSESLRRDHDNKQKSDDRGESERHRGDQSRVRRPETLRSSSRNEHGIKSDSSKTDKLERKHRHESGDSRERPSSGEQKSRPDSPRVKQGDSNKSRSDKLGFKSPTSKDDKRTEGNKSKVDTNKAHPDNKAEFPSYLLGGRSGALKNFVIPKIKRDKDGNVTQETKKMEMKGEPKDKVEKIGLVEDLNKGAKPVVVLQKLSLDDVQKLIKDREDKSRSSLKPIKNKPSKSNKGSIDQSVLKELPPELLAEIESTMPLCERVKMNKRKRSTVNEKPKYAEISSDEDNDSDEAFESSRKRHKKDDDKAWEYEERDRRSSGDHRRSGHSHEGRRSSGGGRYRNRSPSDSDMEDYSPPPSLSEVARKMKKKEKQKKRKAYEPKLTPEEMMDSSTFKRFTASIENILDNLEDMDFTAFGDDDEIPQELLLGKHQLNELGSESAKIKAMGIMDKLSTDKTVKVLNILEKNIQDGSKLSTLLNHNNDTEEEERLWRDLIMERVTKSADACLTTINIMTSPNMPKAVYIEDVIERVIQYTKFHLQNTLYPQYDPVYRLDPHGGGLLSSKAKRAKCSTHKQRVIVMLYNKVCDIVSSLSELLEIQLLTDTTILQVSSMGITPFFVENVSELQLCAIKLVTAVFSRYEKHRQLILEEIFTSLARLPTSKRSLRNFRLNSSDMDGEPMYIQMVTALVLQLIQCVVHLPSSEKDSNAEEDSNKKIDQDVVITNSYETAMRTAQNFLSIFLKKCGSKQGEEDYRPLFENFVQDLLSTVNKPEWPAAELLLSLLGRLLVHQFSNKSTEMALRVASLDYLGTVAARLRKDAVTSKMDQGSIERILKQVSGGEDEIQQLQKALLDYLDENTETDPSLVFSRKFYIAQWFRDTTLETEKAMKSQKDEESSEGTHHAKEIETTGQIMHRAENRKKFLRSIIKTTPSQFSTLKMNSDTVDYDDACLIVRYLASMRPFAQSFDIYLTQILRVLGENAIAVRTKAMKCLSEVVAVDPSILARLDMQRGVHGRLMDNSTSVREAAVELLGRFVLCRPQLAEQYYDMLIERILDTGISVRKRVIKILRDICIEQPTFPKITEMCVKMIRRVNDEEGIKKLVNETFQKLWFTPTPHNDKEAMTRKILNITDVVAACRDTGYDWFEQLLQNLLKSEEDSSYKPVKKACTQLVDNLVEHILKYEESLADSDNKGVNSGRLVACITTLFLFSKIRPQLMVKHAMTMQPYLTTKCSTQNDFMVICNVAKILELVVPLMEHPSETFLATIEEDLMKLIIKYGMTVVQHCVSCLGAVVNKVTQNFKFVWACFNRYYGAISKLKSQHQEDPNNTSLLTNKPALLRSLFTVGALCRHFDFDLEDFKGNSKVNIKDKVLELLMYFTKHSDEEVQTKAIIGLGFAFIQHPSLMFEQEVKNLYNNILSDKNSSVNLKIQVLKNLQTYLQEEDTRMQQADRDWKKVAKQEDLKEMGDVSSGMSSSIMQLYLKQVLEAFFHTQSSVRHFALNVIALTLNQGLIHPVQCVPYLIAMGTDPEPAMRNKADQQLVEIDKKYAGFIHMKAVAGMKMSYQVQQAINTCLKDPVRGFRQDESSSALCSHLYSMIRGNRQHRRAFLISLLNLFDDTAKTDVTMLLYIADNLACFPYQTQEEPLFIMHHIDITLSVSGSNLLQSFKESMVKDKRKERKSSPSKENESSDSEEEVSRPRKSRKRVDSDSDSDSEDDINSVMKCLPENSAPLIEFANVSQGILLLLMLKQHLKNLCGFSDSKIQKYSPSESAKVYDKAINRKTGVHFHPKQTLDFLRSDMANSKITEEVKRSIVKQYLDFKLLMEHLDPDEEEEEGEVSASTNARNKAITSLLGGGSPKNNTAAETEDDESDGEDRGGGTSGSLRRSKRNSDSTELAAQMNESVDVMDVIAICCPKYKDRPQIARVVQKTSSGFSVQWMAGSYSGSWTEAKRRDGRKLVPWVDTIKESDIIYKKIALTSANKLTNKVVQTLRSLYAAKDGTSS
# UniProt Q13185: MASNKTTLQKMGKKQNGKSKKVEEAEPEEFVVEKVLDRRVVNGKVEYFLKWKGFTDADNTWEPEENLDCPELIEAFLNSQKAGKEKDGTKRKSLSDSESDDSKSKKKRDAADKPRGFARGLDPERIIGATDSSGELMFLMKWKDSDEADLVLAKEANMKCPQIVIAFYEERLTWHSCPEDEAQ
# No constants are given. Whether binding was seen depends on the method and setting. Binding seen in cells or lysates may run through a third protein. Some binding calls cover weakened binding; strength is not graded here.
# Biological target: cohesin loading factor Scc2 (human (endogenous in HeLa)) (UniProt Q6KC79)
# Test: co-IP; HeLa nuclear extracts; IP with antibody specific for Scc2 or cohesin (Rad21); washed four times with 0.1 M KCl buffer, eluted with 1.0 M KCl ("wash"), then 2.0 M guanidine-HCl ("eluate"); western blot for HP1γ or CTCF
substance,measurement,value
HP1γ (from UniProt Q13185 1-183),binding,binds weakly
